Test results as given in paper PMC10229537.
No constants are given. Whether binding was seen depends on the method and setting. Some binding calls cover weakened binding; strength is not graded here. One block for each binder: values may come before it.

Chains of the proteins cited; added tags and fusions are not shown. Residues count along the entry.
UniProt Q5D869: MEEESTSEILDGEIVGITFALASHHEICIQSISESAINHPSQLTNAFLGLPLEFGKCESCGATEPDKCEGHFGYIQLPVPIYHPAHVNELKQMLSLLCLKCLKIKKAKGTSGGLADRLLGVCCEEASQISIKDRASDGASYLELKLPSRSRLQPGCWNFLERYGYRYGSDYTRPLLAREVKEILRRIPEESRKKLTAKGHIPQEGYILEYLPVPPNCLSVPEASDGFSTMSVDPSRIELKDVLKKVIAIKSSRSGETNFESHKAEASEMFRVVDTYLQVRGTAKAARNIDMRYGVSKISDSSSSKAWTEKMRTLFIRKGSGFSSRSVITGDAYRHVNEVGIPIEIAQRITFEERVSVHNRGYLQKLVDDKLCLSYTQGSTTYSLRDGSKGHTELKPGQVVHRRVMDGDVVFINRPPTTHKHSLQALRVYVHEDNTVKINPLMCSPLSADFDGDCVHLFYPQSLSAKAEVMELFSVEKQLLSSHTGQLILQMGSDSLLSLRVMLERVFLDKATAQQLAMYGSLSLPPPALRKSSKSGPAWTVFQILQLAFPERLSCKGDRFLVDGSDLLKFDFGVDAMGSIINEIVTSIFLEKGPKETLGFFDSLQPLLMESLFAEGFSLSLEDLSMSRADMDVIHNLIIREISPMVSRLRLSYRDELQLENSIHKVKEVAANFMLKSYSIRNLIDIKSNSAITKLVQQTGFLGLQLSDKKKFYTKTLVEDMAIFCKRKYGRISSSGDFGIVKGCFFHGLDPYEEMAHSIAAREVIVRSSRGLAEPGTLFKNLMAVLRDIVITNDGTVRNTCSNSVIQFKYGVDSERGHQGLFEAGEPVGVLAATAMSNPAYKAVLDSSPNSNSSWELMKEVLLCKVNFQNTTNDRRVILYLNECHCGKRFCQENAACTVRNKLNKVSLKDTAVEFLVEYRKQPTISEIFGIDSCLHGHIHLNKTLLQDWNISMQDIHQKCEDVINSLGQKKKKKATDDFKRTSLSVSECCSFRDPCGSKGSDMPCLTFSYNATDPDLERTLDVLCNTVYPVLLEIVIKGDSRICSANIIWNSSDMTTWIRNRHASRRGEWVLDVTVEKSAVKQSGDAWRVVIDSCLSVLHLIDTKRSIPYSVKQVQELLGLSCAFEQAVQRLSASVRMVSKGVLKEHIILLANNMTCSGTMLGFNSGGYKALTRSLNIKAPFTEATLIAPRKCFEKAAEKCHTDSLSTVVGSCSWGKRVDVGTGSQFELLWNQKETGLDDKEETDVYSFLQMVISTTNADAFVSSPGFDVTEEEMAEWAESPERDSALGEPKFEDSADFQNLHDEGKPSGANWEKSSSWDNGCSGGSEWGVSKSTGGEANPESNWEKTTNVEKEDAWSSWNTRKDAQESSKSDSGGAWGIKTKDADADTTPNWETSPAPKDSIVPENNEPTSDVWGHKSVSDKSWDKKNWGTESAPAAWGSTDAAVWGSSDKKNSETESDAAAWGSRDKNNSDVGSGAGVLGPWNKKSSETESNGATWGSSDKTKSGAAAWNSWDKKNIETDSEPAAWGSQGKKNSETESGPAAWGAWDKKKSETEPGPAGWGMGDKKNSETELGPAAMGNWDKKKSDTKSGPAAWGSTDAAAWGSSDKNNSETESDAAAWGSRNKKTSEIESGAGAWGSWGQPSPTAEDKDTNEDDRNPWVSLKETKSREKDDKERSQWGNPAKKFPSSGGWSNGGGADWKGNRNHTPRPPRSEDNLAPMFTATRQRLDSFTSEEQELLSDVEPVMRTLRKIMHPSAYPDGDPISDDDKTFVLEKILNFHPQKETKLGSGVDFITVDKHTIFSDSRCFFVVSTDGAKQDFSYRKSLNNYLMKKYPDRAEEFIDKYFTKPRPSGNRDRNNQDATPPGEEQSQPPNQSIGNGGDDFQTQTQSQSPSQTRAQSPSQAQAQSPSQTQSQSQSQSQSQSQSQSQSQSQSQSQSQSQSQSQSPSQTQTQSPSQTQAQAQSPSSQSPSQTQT
UniProt F4JW79, residues 1-712: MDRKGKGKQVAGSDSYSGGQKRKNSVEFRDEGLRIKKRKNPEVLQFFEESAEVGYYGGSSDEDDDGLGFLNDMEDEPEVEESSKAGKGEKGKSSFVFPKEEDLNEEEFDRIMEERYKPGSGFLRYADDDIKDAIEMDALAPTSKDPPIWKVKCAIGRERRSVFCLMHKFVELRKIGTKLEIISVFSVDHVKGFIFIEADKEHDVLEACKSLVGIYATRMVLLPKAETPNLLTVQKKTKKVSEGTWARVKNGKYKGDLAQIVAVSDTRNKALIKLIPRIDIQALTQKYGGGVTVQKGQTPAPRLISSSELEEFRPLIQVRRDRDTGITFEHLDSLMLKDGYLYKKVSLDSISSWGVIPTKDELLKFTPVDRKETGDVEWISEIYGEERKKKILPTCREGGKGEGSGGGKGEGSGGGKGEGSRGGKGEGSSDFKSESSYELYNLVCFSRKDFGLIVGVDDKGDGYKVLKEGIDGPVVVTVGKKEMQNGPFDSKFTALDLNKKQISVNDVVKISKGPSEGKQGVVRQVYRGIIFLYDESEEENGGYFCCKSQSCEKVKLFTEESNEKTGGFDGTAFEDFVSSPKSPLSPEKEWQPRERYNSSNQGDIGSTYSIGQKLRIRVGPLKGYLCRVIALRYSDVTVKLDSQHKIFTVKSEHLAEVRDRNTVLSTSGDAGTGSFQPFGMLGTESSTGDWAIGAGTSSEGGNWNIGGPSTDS

Legend:
[1] = molecular target: NRPE1, the largest subunit of Pol V, 3xFLAG-10xHis-tagged (Arabidopsis thaliana) (UniProt Q5D869); assay: cryo-EM structure; contacts between subunits of Pol V, which was purified as a whole from T87 cells, in the KTF1-bound Pol V TEC structure; local map of NRPE5 at 3.7 Å, stalk in the 4.3 Å map
[2] = molecular target: T1, NRPE7 (Arabidopsis thaliana (endogenous in T87 cells)) (UniProt A6QRA1); assay: as above
T1 sequence: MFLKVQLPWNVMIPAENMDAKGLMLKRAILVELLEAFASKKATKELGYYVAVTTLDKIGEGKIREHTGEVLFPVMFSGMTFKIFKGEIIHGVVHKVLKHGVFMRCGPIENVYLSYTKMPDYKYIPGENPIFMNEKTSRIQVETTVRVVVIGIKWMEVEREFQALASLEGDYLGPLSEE

[3] = molecular target: NRPE1, the largest subunit of Pol V, 3xFLAG-10xHis-tagged (Arabidopsis thaliana) (UniProt Q5D869); assay: co-purification with 3xFLAG-10xHis-NRPE1, subunits seen in the cryo-EM map; Pol V purified by anti-FLAG resin, Capto Q and Superose 6 from T87 cells; the subunits present are told from the cryo-EM maps
[4] = molecular target: KOW domain-containing transcription factor 1 (KTF1), residues 1-712, the conserved N-terminal domain (Arabidopsis thaliana) (UniProt F4JW79); assay: SEC; KTF1 (1-712) and SPT4 co-expressed in E. coli, co-purified by Ni-NTA, SUMOstar protease cleavage, heparin and Superose 6 10/300 GL in 20 mM HEPES pH 7.5, 100 mM KCl, 5 mM MgCl2, 2 mM DTT

B1: NRPE5a (protein, UniProt Q9M1J2 1-222)
chain: MEVKGKETASVLCLSKYVDLSSEESHRYYLARRNGLQMLRDRGYEVSDEDINLSLHDFRTVYGERPDVDRLRISALHRSDSTKKVKIVFFGTSMVKVNAIRSVVADILSQETITGLILVLQNHVTNQALKAIELFSFKVEIFQITDLLVNITKHSLKPQHQVLNDEEKTTLLKKFSIEEKQLPRISKKDAIVRYYGLEKGQVVKVNYRGELTESHVAFRCVW
- binding [1]: binds

B2: NRP(D/E)4 (protein, UniProt Q6DBA5 1-205)
chain: MSEKGGKGLKSSLKSKDGGKDGSSTKLKKGRKIHFDQRTPPANYKILNVSSDQQPFQSSAAKCGKSDKPTKSSKNSLHSFELKDLPENAECMMDCEAFQILDGIKGQLVGLSEDPSIKIPVSYDRALAYVESCVHYTNPQSVRKVLEPLKTYGISDGEMCVIANASSESVDEVLAFIPSLKTKKEVINQPLQDALEELSKLKKSE
- binding [2]: binds
- binding [3]: binds

B4: NRP(B/D/E)11 (protein, UniProt Q38859 1-116)
chain: MNAPERYERFVVPEGTKKVSYDRDTKIINAASFTVEREDHTIGNIVRMQLHRDENVLFAGYQLPHPLKYKIIVRIHTTSQSSPMQAYNQAINDLDKELDYLKNQFEAEVAKFSNQF
- binding [3]: binds

Continued, values first:

- binding [4]: binds
B3: SPT4 (protein, UniProt Q94C60 1-116)
chain: MGSAPAQIPTSFGHELRACLRCRLVKTYDQFRDAGCENCPFFKMEEDHERIVEVTTPNFNGIISVMDPSRSWAARWLRIGKFAPGCYTLAVSEPLPEEMQHLCQEERVQYVLPKRM

- binding [1]: binds
B5: NRPE7 (protein, UniProt A6QRA1 1-178)
chain: T1 sequence
